Data as given in patent US20110253633A1, “CATANIONIC VESICLES, PROCESS FOR PREPARING SAME AND APPLICATIONS THEREOF” (COMMISSARIAT A L'ENERGIE ATOMIQUE ET AUX ENERGIES ALT., priority 2008, published 2011).
At least one read-out could not be matched to a standard name with certainty.

Test: Confocal microscopy of solutes with high internal pH vesicles
Format: physicochemical
Settings: Example 3 vesicles, Rhodamine 6G in the external solution
Protocol: The presence of vesicles in the solution is checked by confocal microscopy after adding Rhodamine 6G: take about 100 μL of solution, and add 10 μL of an aqueous solution of Rhodamine 6G at 10 μM. Observation by confocal microscopy is carried out according to the usual techniques.
The presence of vesicles in the solution is checked by confocal microscopy by adding Rhodamine 6G as described above.

SMILES: CC/N=c1\cc2oc3cc(NCC)c(C)cc3c(-c3ccccc3C(=O)OCC)c-2cc1C.Cl [Rhodamine 6G, Chloride of Rhodamine 6G]
- permeability of vesicles to stain added after dialysis: impermeable
